From article PMC8134555
No constants are given. Whether binding was seen depends on the method and setting. In cells and extracts the contact can be indirect. A yes stands for co-enrichment or nearness to the bait. Other partners may have been found.

The chains behind the UniProt entries cited, without tags or fusion partners.
UniProt P39748: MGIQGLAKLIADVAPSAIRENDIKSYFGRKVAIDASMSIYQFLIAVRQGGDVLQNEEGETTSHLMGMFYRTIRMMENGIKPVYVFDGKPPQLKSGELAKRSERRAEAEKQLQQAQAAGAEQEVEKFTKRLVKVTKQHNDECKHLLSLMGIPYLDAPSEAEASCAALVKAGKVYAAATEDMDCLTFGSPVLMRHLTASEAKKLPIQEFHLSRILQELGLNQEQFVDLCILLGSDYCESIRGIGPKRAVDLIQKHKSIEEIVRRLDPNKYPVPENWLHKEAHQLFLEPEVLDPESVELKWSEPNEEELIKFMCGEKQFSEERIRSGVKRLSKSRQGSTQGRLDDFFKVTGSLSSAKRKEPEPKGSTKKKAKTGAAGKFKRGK
UniProt P28340: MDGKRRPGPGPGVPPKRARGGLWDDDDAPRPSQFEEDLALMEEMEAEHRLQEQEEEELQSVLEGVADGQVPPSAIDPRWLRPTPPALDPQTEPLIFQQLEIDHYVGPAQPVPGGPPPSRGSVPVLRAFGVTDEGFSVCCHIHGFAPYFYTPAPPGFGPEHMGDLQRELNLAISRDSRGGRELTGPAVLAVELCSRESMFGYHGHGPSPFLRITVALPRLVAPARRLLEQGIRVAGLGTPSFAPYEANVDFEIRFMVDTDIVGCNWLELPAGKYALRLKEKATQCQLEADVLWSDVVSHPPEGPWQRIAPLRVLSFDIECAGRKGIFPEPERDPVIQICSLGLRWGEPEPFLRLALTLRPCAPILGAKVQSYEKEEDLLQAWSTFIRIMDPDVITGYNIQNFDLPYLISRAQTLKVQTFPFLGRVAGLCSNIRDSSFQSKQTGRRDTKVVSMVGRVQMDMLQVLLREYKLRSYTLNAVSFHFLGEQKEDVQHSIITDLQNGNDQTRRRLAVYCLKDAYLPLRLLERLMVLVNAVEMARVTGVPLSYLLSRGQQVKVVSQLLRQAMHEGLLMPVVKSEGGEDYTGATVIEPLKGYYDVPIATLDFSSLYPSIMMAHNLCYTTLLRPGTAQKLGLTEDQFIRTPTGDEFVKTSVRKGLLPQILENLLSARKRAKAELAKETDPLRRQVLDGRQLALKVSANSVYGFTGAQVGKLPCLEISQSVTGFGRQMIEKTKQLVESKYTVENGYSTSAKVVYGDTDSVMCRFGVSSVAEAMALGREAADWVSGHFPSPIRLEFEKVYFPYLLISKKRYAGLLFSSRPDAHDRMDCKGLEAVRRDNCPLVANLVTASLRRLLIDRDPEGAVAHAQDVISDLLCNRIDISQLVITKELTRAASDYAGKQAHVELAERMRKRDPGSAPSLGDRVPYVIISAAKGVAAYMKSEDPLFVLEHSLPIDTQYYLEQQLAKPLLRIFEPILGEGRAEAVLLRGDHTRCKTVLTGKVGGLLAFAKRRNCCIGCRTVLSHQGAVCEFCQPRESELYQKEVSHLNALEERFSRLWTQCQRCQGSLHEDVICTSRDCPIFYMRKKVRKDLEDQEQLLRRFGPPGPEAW
UniProt P27694: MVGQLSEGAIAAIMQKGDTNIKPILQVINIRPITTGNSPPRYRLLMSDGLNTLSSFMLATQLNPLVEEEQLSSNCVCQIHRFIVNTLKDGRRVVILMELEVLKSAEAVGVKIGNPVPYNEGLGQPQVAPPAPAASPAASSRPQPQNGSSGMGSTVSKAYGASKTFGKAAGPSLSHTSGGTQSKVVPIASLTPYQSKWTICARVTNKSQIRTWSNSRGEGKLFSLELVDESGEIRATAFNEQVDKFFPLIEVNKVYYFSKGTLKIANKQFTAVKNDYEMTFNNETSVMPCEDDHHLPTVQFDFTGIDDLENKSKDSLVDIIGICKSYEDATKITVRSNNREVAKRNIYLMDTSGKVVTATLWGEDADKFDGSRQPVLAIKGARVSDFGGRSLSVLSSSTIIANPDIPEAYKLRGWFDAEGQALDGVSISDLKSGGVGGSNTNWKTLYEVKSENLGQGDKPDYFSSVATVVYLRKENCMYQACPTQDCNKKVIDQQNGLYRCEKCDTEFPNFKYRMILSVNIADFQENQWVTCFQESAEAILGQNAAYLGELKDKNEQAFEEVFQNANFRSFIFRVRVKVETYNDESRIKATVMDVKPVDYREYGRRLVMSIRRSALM
UniProt P13010: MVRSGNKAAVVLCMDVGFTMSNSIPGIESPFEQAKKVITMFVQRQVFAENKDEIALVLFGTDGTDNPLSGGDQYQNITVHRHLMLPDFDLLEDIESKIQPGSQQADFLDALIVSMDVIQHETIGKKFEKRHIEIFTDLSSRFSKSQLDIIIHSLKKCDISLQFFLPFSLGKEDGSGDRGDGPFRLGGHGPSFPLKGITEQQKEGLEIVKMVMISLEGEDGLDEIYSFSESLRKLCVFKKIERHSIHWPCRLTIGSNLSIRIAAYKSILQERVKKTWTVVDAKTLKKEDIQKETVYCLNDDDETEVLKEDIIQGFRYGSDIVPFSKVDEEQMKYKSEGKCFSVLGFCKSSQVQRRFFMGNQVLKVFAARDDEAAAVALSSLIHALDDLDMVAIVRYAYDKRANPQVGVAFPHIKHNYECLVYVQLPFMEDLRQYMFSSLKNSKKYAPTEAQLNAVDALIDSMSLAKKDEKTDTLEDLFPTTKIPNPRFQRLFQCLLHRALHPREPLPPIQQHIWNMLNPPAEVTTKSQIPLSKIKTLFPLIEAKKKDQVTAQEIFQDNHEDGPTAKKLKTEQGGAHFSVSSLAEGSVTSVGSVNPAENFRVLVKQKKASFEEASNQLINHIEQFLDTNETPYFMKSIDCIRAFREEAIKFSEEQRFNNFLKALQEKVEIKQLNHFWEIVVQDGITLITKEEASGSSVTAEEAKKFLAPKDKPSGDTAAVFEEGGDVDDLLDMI
UniProt P12956: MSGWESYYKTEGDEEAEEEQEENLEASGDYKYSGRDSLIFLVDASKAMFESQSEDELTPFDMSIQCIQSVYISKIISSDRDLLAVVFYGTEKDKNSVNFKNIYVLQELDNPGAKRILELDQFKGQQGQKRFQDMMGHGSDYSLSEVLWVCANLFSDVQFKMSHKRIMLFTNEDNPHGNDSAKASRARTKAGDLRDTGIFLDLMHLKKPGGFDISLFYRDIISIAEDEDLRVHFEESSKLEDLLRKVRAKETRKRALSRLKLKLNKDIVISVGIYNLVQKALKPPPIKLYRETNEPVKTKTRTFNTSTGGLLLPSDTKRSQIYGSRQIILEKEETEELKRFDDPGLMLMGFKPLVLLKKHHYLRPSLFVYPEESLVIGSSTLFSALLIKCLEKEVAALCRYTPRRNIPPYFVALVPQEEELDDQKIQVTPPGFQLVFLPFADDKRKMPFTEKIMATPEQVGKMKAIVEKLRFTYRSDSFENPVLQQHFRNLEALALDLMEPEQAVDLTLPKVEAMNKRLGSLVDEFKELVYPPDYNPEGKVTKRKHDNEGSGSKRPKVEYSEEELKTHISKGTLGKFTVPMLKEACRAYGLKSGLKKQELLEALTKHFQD
UniProt P09874: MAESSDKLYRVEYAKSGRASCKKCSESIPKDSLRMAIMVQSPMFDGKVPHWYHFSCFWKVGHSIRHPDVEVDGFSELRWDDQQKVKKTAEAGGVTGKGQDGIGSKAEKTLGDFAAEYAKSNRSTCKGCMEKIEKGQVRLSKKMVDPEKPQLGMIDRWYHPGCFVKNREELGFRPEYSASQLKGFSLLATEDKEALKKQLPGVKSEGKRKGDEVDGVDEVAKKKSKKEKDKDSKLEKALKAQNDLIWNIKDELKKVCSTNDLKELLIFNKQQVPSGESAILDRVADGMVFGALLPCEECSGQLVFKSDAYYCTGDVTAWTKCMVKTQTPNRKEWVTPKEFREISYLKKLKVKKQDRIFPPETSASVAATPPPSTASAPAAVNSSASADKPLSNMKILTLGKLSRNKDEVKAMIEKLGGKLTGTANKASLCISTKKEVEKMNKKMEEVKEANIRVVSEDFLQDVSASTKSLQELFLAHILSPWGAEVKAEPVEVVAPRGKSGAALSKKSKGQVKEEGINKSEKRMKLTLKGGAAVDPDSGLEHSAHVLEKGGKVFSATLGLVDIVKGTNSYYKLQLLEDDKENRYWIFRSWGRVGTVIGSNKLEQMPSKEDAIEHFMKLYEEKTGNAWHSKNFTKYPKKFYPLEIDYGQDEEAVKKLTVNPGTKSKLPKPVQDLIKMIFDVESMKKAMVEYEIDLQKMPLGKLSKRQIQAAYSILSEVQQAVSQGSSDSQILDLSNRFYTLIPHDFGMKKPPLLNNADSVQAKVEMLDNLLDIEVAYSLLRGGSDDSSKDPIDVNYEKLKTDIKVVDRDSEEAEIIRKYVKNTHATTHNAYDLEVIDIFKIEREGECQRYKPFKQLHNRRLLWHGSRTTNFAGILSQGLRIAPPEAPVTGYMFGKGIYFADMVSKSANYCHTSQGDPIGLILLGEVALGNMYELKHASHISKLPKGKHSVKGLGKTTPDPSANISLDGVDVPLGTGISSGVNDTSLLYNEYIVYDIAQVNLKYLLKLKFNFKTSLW

Each substance was assayed against T1, macrophage migration inhibitory factor (MIF), endogenous (human (endogenous in MDA-MB-231 and HeLa)) (UniProt P14174) (assay: affinity purification with mass spectrometry; immunoprecipitation of endogenous MIF from HeLa cells, DMSO or 4 h after MNNG (50 uM, 15 min); MIF KO cells as negative control; hits found under both conditions).
T1 sequence: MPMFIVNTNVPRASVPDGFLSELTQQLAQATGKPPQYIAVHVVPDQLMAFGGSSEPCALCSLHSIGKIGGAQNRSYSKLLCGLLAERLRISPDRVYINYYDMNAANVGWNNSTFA

binding, binds:
Flap endonuclease 1 (FEN1), endogenous (from UniProt P39748 1-380)
POLD1, endogenous (from UniProt P28340 1-1107)
RPA1, endogenous (from UniProt P27694 1-616)
XRCC5, endogenous (from UniProt P13010 1-732)
XRCC6, endogenous (from UniProt P12956 1-609)
poly(ADP-ribose) polymerase 1 (PARP1), endogenous (from UniProt P09874 1-1014)
